PubChem BioAssay AID602196 | INSERM | 2012

Aim: 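Modifiers of cisplatin sensitivity in A549 cells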
Cells: human A549 lung cancer cells
Reagent: siRNA pair against human genes
Time to read-out: 48 h transfection before cisplatin; time from cisplatin to read-out not stated
Conditions: cisplatin at a dose killing half of control-siRNA cells; exact dose and duration not given
Detection: 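Shift in cisplatin death relative to control siRNA, from -50 (all cells die) to +50 (no cells die); siRNAs harmful on their own scored 0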
Direction: two-siRNA summed score (-2 to +2): higher = both siRNAs protect from cisplatin killing; -2 means both sensitise; mean protection from cisplatin (shift in death): higher = protection from cisplatin killing
Active means: 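Each siRNA scores 0 if harmful alone by LDH or WST-1, otherwise +1 if it reduces and -1 if it increases cisplatin killing; a gene is active when both siRNAs agree (sum +2 or -2)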
Meaning of the calls: active = both siRNAs shift cisplatin killing the same way; inactive = no consistent shift, or siRNA harmful alone
In all, the deposit lists about 23,000 reagents; below is an unselected part. Over the whole deposit, 455 (2%) were called active. 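Active includes both protection and sensitisation; some change values fall well beyond the stated -50 to +50 range.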 Not all columns of the deposit are shown. Not given: the amount of reagent.

LOC387631 gave two-siRNA summed score (-2 to +2) = 0; mean protection from cisplatin (shift in death) (%) = -3; inactive.
With knock-down of LOC388171 the results were two-siRNA summed score (-2 to +2) = 1; mean protection from cisplatin (shift in death) (%) = 26.7; inactive.
Silencing of LINC00921 gave: two-siRNA summed score (-2 to +2) = 1; mean protection from cisplatin (shift in death) (%) = 17.7; inactive.
After knock-down of C4BPA the results were two-siRNA summed score (-2 to +2) = 1; mean protection from cisplatin (shift in death) (%) = 2.7; inactive.
For LOC441118, the entry reads two-siRNA summed score (-2 to +2) = 1; mean protection from cisplatin (shift in death) (%) = 8.6; inactive.
LDB1 showed two-siRNA summed score (-2 to +2) = 1; mean protection from cisplatin (shift in death) (%) = 14; inactive.
Silencing of LOC387686 resulted in: two-siRNA summed score (-2 to +2) = 1; mean protection from cisplatin (shift in death) (%) = 14.1; inactive.
PQBP1 scored two-siRNA summed score (-2 to +2) = 0; mean protection from cisplatin (shift in death) (%) = 7; inactive.
LOC441120 showed two-siRNA summed score (-2 to +2) = 0; mean protection from cisplatin (shift in death) (%) = 1; inactive.
Against SLCO1B1, the values are two-siRNA summed score (-2 to +2) = -1; mean protection from cisplatin (shift in death) (%) = -4.5; inactive.
Against RUFY3, the entry reads two-siRNA summed score (-2 to +2) = 0; mean protection from cisplatin (shift in death) (%) = -1.4; inactive.
DNAAF5 gave two-siRNA summed score (-2 to +2) = 0; mean protection from cisplatin (shift in death) (%) = -2.3; inactive.
With knock-down of ARFGAP1, the screen gave two-siRNA summed score (-2 to +2) = 0; mean protection from cisplatin (shift in death) (%) = 6.2; inactive.
Against MRRF, the values are two-siRNA summed score (-2 to +2) = 0; mean protection from cisplatin (shift in death) (%) = 2.1; inactive.
After knock-down of LOC390738, the record shows two-siRNA summed score (-2 to +2) = 1; mean protection from cisplatin (shift in death) (%) = 9.4; inactive.
For NCBP1, the values are two-siRNA summed score (-2 to +2) = 0; mean protection from cisplatin (shift in death) (%) = -6.1; inactive.
With knock-down of DPY19L2P2 the results were two-siRNA summed score (-2 to +2) = 0; mean protection from cisplatin (shift in death) (%) = 12.7; inactive.
Depletion of CMTM8 came out at: two-siRNA summed score (-2 to +2) = 0; mean protection from cisplatin (shift in death) (%) = 11.3; inactive.
After knock-down of LOC399707, the record shows two-siRNA summed score (-2 to +2) = 0; mean protection from cisplatin (shift in death) (%) = -1.6; inactive.
RSU1 scored two-siRNA summed score (-2 to +2) = 0; mean protection from cisplatin (shift in death) (%) = 11.2; inactive.
Against RP1, the entry reads two-siRNA summed score (-2 to +2) = 0; mean protection from cisplatin (shift in death) (%) = 4.7; inactive.
Knock-down of LOC390801 resulted in: two-siRNA summed score (-2 to +2) = 2; mean protection from cisplatin (shift in death) (%) = 17.9; active.
After knock-down of EXTL3 the results were two-siRNA summed score (-2 to +2) = 0; mean protection from cisplatin (shift in death) (%) = -5.5; inactive.
FGFR4 gave two-siRNA summed score (-2 to +2) = 0; mean protection from cisplatin (shift in death) (%) = 2.6; inactive.
Depletion of PAX6 came out at: two-siRNA summed score (-2 to +2) = 0; mean protection from cisplatin (shift in death) (%) = 3.7; inactive.
Knock-down of GPX4 came out at: two-siRNA summed score (-2 to +2) = 0; mean protection from cisplatin (shift in death) (%) = 12.6; inactive.
Against QRSL1, the values are two-siRNA summed score (-2 to +2) = 0; mean protection from cisplatin (shift in death) (%) = 2.1; inactive.
With knock-down of CATSPERB, the record shows two-siRNA summed score (-2 to +2) = 0; mean protection from cisplatin (shift in death) (%) = 2.1; inactive.
After knock-down of LOC441569, the record shows two-siRNA summed score (-2 to +2) = 0; mean protection from cisplatin (shift in death) (%) = 4.1; inactive.
For LOC388807, the values are two-siRNA summed score (-2 to +2) = 0; mean protection from cisplatin (shift in death) (%) = 4.8; inactive.
After knock-down of SAMD14, the screen gave two-siRNA summed score (-2 to +2) = 0; mean protection from cisplatin (shift in death) (%) = 2.4; inactive.
Knock-down of PTH2R gave: two-siRNA summed score (-2 to +2) = 0; mean protection from cisplatin (shift in death) (%) = -0.6; inactive.
Depletion of ASB15 resulted in: two-siRNA summed score (-2 to +2) = 1; mean protection from cisplatin (shift in death) (%) = 13.2; inactive.
With knock-down of RIT1 the results were two-siRNA summed score (-2 to +2) = 1; mean protection from cisplatin (shift in death) (%) = 6.9; inactive.
NFATC1 scored two-siRNA summed score (-2 to +2) = 0; mean protection from cisplatin (shift in death) (%) = -3.2; inactive.
ERI3 gave two-siRNA summed score (-2 to +2) = 1; mean protection from cisplatin (shift in death) (%) = 12.8; inactive.
CLEC4E scored two-siRNA summed score (-2 to +2) = 0; mean protection from cisplatin (shift in death) (%) = 3.2; inactive.
Knock-down of CDC25C gave: two-siRNA summed score (-2 to +2) = -1; mean protection from cisplatin (shift in death) (%) = -8.2; inactive.
CD48 scored two-siRNA summed score (-2 to +2) = -1; mean protection from cisplatin (shift in death) (%) = -9.5; inactive.
For YARS2, the entry reads two-siRNA summed score (-2 to +2) = 0; mean protection from cisplatin (shift in death) (%) = -0.1; inactive.

Laid out differently: results already given
| gene knocked down | two-siRNA summed score (-2 to +2) | mean protection from cisplatin (shift in death) (%) | Outcome |
| --- | --- | --- | --- |
| NCBP1 | 0 | -6.1 | inactive |
| DPY19L2P2 | 0 | 12.7 | inactive |
| CMTM8 | 0 | 11.3 | inactive |
| LOC399707 | 0 | -1.6 | inactive |
| RSU1 | 0 | 11.2 | inactive |
| RP1 | 0 | 4.7 | inactive |
